Values quoted from earlier work in patent US9610291B2, “Treatment of respiratory depression” (NUMEDICUS LIMITED, priority 2012, dated 2017).

Conditions: in humans; cited from earlier work

For `CN1c2ccccc2C(NCCCCCCC(=O)O)c2ccc(Cl)cc2S1(=O)=O` (stereo not shown) [tianeptine, 7-[(3-chloro-6,11-dihydro-6-methyl-dibenzo[c,f][1,2]thiazepin-11-yl)amino]heptanoic acid S,S-dioxide], the plasma half-life is listed as 2.5 ± 1.1 h.
